Publication PMC11078746 (Nature, 2024)
“And” between values parts separate entries of the source, which are not always exact repeats. Equal values may be shown once. Further values from the same series stand in other lists.

Assay: Mouse body weight, SW48 xenograft study with HRO761
Assay type: in vivo
Protocol: All animal studies were conducted in accordance with ethics and procedures covered by permit BS-2275 and BS-1975 issued by the Kantonales Veterinäramt Basel-Stadt and in strict adherence to guidelines of the Eidgenössisches Tierschutzgesetz and the Eidgenössische Tierschutzverordnung, Switzerland. All animal studies were approved by the internal ethics committee. All animals had access to food and water ad libitum and were identified with transponders. They were housed in a specific-pathogen-free facility in IVC racks under a 12 h–12 h light–dark cycle. To establish cell-line-derived xenograft models, 6–7-week-old female athymic nude (Crl:NU(NCr)-Foxn1^nu) or SCID-BEIGE (CB17.Cg-PrkdcscidLystbg-J/Crl) mice from Charles River were engrafted subcutaneously with 5 million tumour cells in HBSS (H6648, Sigma-Aldrich). For SNU-407, Lovo, IM95, RL95.2, Ishikawa and IGROV-1, the cells were concentrated in 50% Matrigel (354234, Corning). Patient-derived xenografts were induced and expanded by transplantation as previously described. […] For the efficacy experiment, mice were randomized into groups (n = 5–6) for a mean tumour size of 100–150 mm^3. […] Blood samples were collected on day 7 and 91. […] Tumour responses are reported with the measures of tumour volumes from the treatment start. […] Animals were randomized (n = 3) and tumour samples were collected at 0, 1, 4, 8 and 24 h on the first day and then collected 4 h after the last treatment on day 3, 8, 10, 14 (including a 24 h timepoint), 17 and 21. Tumours were excised, weighed, either frozen in liquid nitrogen and cryogenic dry pulverized with the CryoPrep system (model CP-02, Covaris) or processed to FFPE after fixation. […] On day 12, blood samples were collected for PK analysis. On the last day (3 h after the last treatment), tumours were excised, weighed, frozen in liquid nitrogen and cryogenic dry pulverized for PD analysis.

## CCc1c(N2CCN(C(=O)c3ncnc(C)c3O)CC2)c(=O)n2nc(C3=CCOCC3)nc2n1CC(=O)Nc1ccc(C(F)(F)F)cc1Cl [HRO761]
HRO761 20mg/kg, day 17 post 1st dose, 20 mg/kg
  Delta BW change, individual mouse: 5.81% and 7.11% and -1.54% and -1.95% and 3.35%
HRO761 20mg/kg, day 21 post 1st dose, 20 mg/kg
  Delta BW change, individual mouse: 7.47% and 7.95% and 0% and 3.11% and 5.2%
HRO761 20mg/kg, day 24 post 1st dose, 20 mg/kg
  Delta BW change, individual mouse: 4.98% and 5.44% and -1.16% and 0.78% and 4.83%
HRO761 20mg/kg, day 28 post 1st dose, 20 mg/kg
  Delta BW change, individual mouse: 5.39% and 4.18% and -2.7% and 3.5% and 5.2%
HRO761 20mg/kg, day 31 post 1st dose, 20 mg/kg
  Delta BW change, individual mouse: 5.81% and 3.77% and -5.79% and 2.33% and 5.58%
HRO761 20mg/kg, day 35 post 1st dose, 20 mg/kg
  Delta BW change, individual mouse: 7.05% and 3.35% and -3.09% and 4.28% and 5.58%
HRO761 20mg/kg, day 38 post 1st dose, 20 mg/kg
  Delta BW change, individual mouse: 6.64% and 3.35% and -6.18% and 1.56% and 5.95%
HRO761 20mg/kg, day 42 post 1st dose, 20 mg/kg
  Delta BW change, individual mouse: 9.13% and 4.18% and -3.86% and 2.33% and 7.43%
HRO761 20mg/kg, day 45 post 1st dose, 20 mg/kg
  Delta BW change, individual mouse: 5.81% and 4.6% and -4.25% and 5.84% and 7.06%
HRO761 40mg/kg, day 17 post 1st dose, 40 mg/kg
  Delta BW change, individual mouse: 4.55% and 6.06% and -1.08% and 2.27% and 5.36%
HRO761 40mg/kg, day 21 post 1st dose, 40 mg/kg
  Delta BW change, individual mouse: 7.73% and 11.26% and -2.53% and 3.41% and 8.43%
HRO761 40mg/kg, day 24 post 1st dose, 40 mg/kg
  Delta BW change, individual mouse: 8.64% and 9.09% and 0.72% and 4.92% and 11.11%
HRO761 40mg/kg, day 28 post 1st dose, 40 mg/kg
  Delta BW change, individual mouse: 9.55% and 5.63% and 2.17% and 6.82% and 8.05%
HRO761 40mg/kg, day 31 post 1st dose, 40 mg/kg
  Delta BW change, individual mouse: 9.09% and 6.49% and 2.17% and 6.06% and 4.21%
HRO761 40mg/kg, day 35 post 1st dose, 40 mg/kg
  Delta BW change, individual mouse: 9.09% and 8.23% and 4.69% and 6.44% and 6.51%
HRO761 40mg/kg, day 38 post 1st dose, 40 mg/kg
  Delta BW change, individual mouse: 8.64% and 6.49% and 3.25% and 7.2% and 7.66%
HRO761 40mg/kg, day 42 post 1st dose, 40 mg/kg
  Delta BW change, individual mouse: 7.73% and 7.36% and 2.17% and 5.3% and 11.88%
HRO761 40mg/kg, day 45 post 1st dose, 40 mg/kg
  Delta BW change, individual mouse: 7.73% and 6.49% and 2.53% and 8.33% and 10.73%
HRO761 40mg/kg, day 49 post 1st dose, 40 mg/kg
  Delta BW change, individual mouse: 9.55% and 8.66% and 3.97% and 10.61% and 11.11%
HRO761 40mg/kg, day 52 post 1st dose, 40 mg/kg
  Delta BW change, individual mouse: 8.64% and 10.39% and 5.05% and 6.82% and 10.73%
HRO761 40mg/kg, day 56 post 1st dose, 40 mg/kg
  Delta BW change, individual mouse: 7.27% and 8.23% and 3.61% and 8.71% and 10.34%
HRO761 40mg/kg, day 59 post 1st dose, 40 mg/kg
  Delta BW change, individual mouse: 9.09% and 8.23% and 4.33% and 9.85% and 9.96%
HRO761 40mg/kg, day 63 post 1st dose, 40 mg/kg
  Delta BW change, individual mouse: 10.91% and 9.96% and 6.14% and 8.71% and 14.18%
HRO761 40mg/kg, day 66 post 1st dose, 40 mg/kg
  Delta BW change, individual mouse: 10% and 11.69% and 5.05% and 10.98% and 14.18%
HRO761 40mg/kg, day 70 post 1st dose, 40 mg/kg
  Delta BW change, individual mouse: 11.36% and 9.52% and 5.05% and 8.71% and 9.96%
HRO761 40mg/kg, day 73 post 1st dose, 40 mg/kg
  Delta BW change, individual mouse: 10% and 8.66% and 5.78% and 7.58% and 10.73%
HRO761 40mg/kg, day 76 post 1st dose, 40 mg/kg
  Delta BW change, individual mouse: 11.36% and 13.42% and 6.86% and 11.74% and 16.48%
HRO761 40mg/kg, day 79 post 1st dose, 40 mg/kg
  Delta BW change, individual mouse: 8.64% and 8.23% and 3.25% and 5.3% and 11.88%
HRO761 40mg/kg, day 83 post 1st dose, 40 mg/kg
  Delta BW change, individual mouse: 10% and 8.66% and 6.86% and 9.85% and 1.53%
HRO761 40mg/kg, day 86 post 1st dose, 40 mg/kg
  Delta BW change, individual mouse: 8.64% and 11.69% and 4.33% and 10.61% and 13.79%
HRO761 60mg/kg, day 17 post 1st dose, 60 mg/kg
  Delta BW change, individual mouse: 0.43% and -3.67% and 7.11% and -5.86% and 0.85%
HRO761 60mg/kg, day 21 post 1st dose, 60 mg/kg
  Delta BW change, individual mouse: 0.85% and -1.63% and 6.69% and -3.77% and 2.99%
HRO761 60mg/kg, day 24 post 1st dose, 60 mg/kg
  Delta BW change, individual mouse: 2.13% and 2.04% and 7.53% and -2.09% and 2.56%
HRO761 60mg/kg, day 28 post 1st dose, 60 mg/kg
  Delta BW change, individual mouse: 6.81% and 5.71% and 8.79% and 0.42% and 3.85%
HRO761 60mg/kg, day 31 post 1st dose, 60 mg/kg
  Delta BW change, individual mouse: 7.66% and 4.49% and 6.28% and 3.77% and 4.7%
HRO761 60mg/kg, day 35 post 1st dose, 60 mg/kg
  Delta BW change, individual mouse: 4.68% and 5.71% and 5.44% and 0.84% and 5.13%
HRO761 60mg/kg, day 38 post 1st dose, 60 mg/kg
  Delta BW change, individual mouse: 2.55% and 3.67% and 3.35% and -1.67% and 3.85%
HRO761 60mg/kg, day 42 post 1st dose, 60 mg/kg
  Delta BW change, individual mouse: 4.26% and 4.49% and 5.02% and -1.67% and 5.13%
